Reference: US20140193405A1
Results are given in words; binding and its absence hold for the method and conditions named. Some results given as binding are weak or reduced against the parent protein; the word gives no strength.

The chains behind the UniProt entries cited, without tags or fusion partners. Residues count along the entry.
UniProt P25942, residues 21-193: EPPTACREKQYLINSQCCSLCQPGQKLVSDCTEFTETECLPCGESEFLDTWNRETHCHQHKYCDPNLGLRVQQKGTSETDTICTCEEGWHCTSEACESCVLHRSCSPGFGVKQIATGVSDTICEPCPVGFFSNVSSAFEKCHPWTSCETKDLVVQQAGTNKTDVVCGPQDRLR

target: CD40 (UniProt P25942); test: binding of serially diluted antibody to CD40 immobilised on microassay plates

Row | Binder | binding
1 | hu sgn-14 (antibody, V domains shown) VH: EVQLVESGGGLVQPGGSLRLSCAASGYSFTGYYIHWVRQAPGKGLEWVARVIPNNGGTSYNQKFKGRFTLSVDNSKNTAYLQMNSLRAEDTAVYYCAREGIYWWGQGTLVTVS VL: DIQMTQSPSSLSASVGDRVTITCRSSQSLVHSNGNTFLHWYQQKPGKAPKLLIYTVSNRFSGVPSRFSGSGSGTDFTLTISSLQPEDFATYYCSQTTHVPWTFGQGTKVEIKR | binds
2 | hu sgn-18 (antibody, V domains shown) VH: EVQLVESGGGLVQPGGSLRLSCAASGYSFTGYYIHWVRQAPGKGLEWVARVIPNNGGTSYNQKFKGRATLSVDNSKNTAYLQMNSLRAEDTAVYYCAREGIYWWGQGTLVTVS VL: DIQMTQSPSSLSASVGDRVTITCRSSQSLVHSNGNTFLHWYQQKPGKAPKLLIYTVSNRFSGVPSRFSGSGSGTDFTLTISSLQPEDFATYFCSQTTHVPWTFGQGTKVEIKR | binds
3 | hu sgn-19 (antibody, V domains shown) VH: EVQLVESGGGLVQPGGSLRLSCAASGYSFTGYYIHWVRQAPGKGLEWVARVIPNNGGTSYNQKFKGRFTLSVDNSKNTAYLQMNSLRAEDTAVYYCAREGIYWWGQGTLVTVS VL: DIQMTQSPSSLSASVGDRVTITCRSSQSLVHSNGNTFLHWYQQKPGKAPKLLIYTVSNRFSGVPSRFSGSGSGTDFTLTISSLQPEDFATYFCSQTTHVPWTFGQGTKVEIKR | binds
4 | hu sgn-22 (antibody, V domains shown) VH: EVQLVESGGGLVQPGGSLRLSCAASGYSFTGYYIHWVRQAPGKGLEWVARVIPNAGGTSYNQKFKGRFTLSVDNSKNTAYLQMNSLRAEDTAVYYCAREGIYWWGQGTLVTVS VL: DIQMTQSPSSLSASVGDRVTITCRSSQSLVHSNGNTFLHWYQQKPGKAPKLLIYTVSNRFSGVPSRFSGSGSGTDFTLTISSLQPEDFATYYCSQTTHVPWTFGQGTKVEIKR | binds

More lines, now with the values ahead:

Row | binding | Binder
5 | binds | hu sgn-23 (antibody, V domains shown) VH: EVQLVESGGGLVQPGGSLRLSCAASGYSFTGYYIHWVRQAPGKGLEWVARVIPNQGGTSYNQKFKGRFTLSVDNSKNTAYLQMNSLRAEDTAVYYCAREGIYWWGQGTLVTVS VL: DIQMTQSPSSLSASVGDRVTITCRSSQSLVHSNGNTFLHWYQQKPGKAPKLLIYTVSNRFSGVPSRFSGSGSGTDFTLTISSLQPEDFATYYCSQTTHVPWTFGQGTKVEIKR
6 | binds | hu sgn-26 (antibody, V domains shown) VH: EVQLVESGGGLVQPGGSLRLSCAASGYSFTGYYIHWVRQAPGKGLEWVARVIPNAGGTSYNQKFKGRFTLSVDNSKNTAYLQMNSLRAEDTAVYYCAREGIYWWGQGTLVTVS VL: DIQMTQSPSSLSASVGDRVTITCRSSQSLVHSNGNTFLHWYQQKPGKAPKLLIYTVSNRFSGVPSRFSGSGSGTDFTLTISSLQPEDFATYFCSQTTHVPWTFGQGTKVEIKR
7 | binds | hu sgn-27 (antibody, V domains shown) VH: EVQLVESGGGLVQPGGSLRLSCAASGYSFTGYYIHWVRQAPGKGLEWVARVIPNQGGTSYNQKFKGRFTLSVDNSKNTAYLQMNSLRAEDTAVYYCAREGIYWWGQGTLVTVS VL: DIQMTQSPSSLSASVGDRVTITCRSSQSLVHSNGNTFLHWYQQKPGKAPKLLIYTVSNRFSGVPSRFSGSGSGTDFTLTISSLQPEDFATYFCSQTTHVPWTFGQGTKVEIKR
